Results published in PMC11954719 (Cardiovascular Drugs and Therapy, 2023).

Key:
[1] = design: species or system human; conditions: population PK estimate
[2] = Phase I DDI trial, atorvastatin arm: plasma pharmacokinetics of atorvastatin and metabolites before and on day 5 of ritonavir; conditions: for Tmax: Median tmax (range); for Vd/F: Vz/F

SMILES: CC(C)c1c(C(=O)Nc2ccccc2)c(-c2ccccc2)c(-c2ccc(F)cc2)n1CC[C@@H](O)C[C@@H](O)CC(=O)O [Atorvastatin, atorvastatin, reference compound]
- Vt/F (apparent volume of peripheral compartment) [1]: 4040 L
- Vc/F (apparent volume of the central compartment) ([1]; IIV 89.5 CV %): 2507 L
- AUC∞ ([2]; Baseline, single dose 10 mg atorvastatin, plasma, geometric mean (95% CI), eight healthy volunteers): 17.8 (13.0–24.4) h • ng/mL
- increase of Cmax during ritonavir ([2]; fifth day of ritonavir (2 × 100 mg/day) vs baseline, 10 mg atorvastatin): 3.78 fold
- AUC(0-inf) ([2]; human, plasma, oral, 10 mg): 84.9 ng·h/mL
- Cmax ([2]; human, plasma, oral, 10 mg, Cmax, Day 5 of ritonavir (2 × 100 mg/day), single dose 10 mg atorvastatin, geometric mean (95% CI)): 8.57 ng/mL
- Tmax ([2]; human, plasma, oral, 10 mg, Baseline, single dose 10 mg atorvastatin): 1.25 h
- Tmax ([2]; human, plasma, oral, 10 mg, Day 5 of ritonavir (2 × 100 mg/day), single dose 10 mg atorvastatin): 2 h
- Vd/F ([2]; human, plasma, oral, 10 mg, Baseline, single dose 10 mg atorvastatin, geometric mean (95% CI)): 7350 L
- Vd/F ([2]; human, plasma, oral, 10 mg, Day 5 of ritonavir (2 × 100 mg/day), single dose 10 mg atorvastatin, geometric mean (95% CI)): 1740 L
